Source: paper PMC12463075
No constants are given. Whether binding was seen depends on the method and setting. Binding seen in cells or lysates may run through a third protein. Some entries that bind do so weakly or less than the wild type. Sequences can lack the tags named with a protein.

By UniProt entry, the sequences of proteins in these tests, tags left out.
UniProt Q99KQ4: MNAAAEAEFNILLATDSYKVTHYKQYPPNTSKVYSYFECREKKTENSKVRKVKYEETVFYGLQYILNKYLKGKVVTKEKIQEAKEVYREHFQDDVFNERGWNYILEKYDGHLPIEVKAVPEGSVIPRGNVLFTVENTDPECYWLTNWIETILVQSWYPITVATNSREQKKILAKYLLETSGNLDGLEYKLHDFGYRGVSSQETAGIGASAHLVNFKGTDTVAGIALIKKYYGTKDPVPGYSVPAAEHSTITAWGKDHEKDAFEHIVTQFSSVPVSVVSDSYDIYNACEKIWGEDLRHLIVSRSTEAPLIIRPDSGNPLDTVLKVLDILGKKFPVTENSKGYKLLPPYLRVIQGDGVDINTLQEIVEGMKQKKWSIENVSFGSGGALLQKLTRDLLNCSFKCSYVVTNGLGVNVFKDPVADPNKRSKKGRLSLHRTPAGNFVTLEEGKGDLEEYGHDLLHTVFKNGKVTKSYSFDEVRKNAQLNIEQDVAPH
UniProt P43490: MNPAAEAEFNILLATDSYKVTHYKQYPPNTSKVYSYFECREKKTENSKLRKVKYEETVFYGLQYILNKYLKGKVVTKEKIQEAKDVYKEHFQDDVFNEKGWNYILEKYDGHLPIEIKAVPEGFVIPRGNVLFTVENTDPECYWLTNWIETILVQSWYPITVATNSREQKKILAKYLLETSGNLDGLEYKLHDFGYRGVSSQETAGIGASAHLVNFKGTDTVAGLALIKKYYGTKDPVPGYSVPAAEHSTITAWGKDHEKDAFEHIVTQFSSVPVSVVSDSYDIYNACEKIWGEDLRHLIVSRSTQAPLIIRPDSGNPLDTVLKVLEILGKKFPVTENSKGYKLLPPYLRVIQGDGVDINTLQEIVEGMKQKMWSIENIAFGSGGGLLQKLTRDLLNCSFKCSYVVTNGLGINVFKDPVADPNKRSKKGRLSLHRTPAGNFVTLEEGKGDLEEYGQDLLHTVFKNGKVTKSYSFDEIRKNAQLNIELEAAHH

Molecular target: T1, HA-tagged A1BG (UniProt P04217)
T1 sequence: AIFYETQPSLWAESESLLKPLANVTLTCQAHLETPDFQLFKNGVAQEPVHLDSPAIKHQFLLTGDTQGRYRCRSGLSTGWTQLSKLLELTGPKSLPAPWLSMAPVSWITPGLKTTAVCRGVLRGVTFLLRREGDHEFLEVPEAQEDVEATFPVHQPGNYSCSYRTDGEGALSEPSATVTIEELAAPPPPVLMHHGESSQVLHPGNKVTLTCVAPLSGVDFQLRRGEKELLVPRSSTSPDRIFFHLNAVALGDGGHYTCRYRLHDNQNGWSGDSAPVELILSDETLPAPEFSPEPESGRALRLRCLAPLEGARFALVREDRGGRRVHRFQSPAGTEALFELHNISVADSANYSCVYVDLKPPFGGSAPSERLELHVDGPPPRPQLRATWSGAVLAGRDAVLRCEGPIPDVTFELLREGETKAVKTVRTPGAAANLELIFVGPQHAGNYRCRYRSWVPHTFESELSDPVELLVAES
Experiment: co-IP; lysates of 1 × 10^7 MNNG, U2OS and K7M2 cells; IP antibody (anti-HA or anti-NAMPT) with Protein A/G beads; Western blot; IgG as negative control

In the case of “nicotinamide phosphoribosyltransferase (NAMPT), mouse, endogenous (from UniProt Q99KQ4 1-491) (enzyme)”, the binding is reported as “binds”.

“nicotinamide phosphoribosyltransferase (NAMPT), human, endogenous (from UniProt P43490 1-491) (enzyme)” was tested, and the binding was “binds”.
